No constants are given. Whether binding was seen depends on the method and setting. In cells and extracts the contact can be indirect. Some binding calls cover weakened binding; strength is not graded here.
Target: STAT5A-CFAST fusion protein (human) (UniProt P42229)
Assay: split reporter

The chains behind the UniProt entries cited, without tags or fusion partners.
UniProt P42229: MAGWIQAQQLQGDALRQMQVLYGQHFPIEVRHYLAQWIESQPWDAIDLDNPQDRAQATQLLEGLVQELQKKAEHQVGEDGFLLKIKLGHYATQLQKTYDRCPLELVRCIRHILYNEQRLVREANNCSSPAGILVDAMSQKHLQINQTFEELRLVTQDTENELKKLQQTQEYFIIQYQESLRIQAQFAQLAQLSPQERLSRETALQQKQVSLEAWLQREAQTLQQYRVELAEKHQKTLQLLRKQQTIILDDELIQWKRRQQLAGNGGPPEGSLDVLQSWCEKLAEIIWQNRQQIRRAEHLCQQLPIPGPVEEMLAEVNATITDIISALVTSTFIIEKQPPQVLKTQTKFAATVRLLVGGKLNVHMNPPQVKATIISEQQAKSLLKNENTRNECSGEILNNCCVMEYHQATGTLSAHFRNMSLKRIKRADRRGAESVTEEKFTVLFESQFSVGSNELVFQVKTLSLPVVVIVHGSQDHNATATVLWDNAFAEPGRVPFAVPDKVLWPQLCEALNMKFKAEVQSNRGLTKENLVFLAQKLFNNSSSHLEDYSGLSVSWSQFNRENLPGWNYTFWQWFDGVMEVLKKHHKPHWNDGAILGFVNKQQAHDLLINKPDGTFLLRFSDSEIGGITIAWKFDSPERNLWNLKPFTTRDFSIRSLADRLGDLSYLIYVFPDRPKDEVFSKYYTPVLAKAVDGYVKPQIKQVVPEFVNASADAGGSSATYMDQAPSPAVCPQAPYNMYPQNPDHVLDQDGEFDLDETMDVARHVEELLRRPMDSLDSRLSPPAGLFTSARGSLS
UniProt O14746: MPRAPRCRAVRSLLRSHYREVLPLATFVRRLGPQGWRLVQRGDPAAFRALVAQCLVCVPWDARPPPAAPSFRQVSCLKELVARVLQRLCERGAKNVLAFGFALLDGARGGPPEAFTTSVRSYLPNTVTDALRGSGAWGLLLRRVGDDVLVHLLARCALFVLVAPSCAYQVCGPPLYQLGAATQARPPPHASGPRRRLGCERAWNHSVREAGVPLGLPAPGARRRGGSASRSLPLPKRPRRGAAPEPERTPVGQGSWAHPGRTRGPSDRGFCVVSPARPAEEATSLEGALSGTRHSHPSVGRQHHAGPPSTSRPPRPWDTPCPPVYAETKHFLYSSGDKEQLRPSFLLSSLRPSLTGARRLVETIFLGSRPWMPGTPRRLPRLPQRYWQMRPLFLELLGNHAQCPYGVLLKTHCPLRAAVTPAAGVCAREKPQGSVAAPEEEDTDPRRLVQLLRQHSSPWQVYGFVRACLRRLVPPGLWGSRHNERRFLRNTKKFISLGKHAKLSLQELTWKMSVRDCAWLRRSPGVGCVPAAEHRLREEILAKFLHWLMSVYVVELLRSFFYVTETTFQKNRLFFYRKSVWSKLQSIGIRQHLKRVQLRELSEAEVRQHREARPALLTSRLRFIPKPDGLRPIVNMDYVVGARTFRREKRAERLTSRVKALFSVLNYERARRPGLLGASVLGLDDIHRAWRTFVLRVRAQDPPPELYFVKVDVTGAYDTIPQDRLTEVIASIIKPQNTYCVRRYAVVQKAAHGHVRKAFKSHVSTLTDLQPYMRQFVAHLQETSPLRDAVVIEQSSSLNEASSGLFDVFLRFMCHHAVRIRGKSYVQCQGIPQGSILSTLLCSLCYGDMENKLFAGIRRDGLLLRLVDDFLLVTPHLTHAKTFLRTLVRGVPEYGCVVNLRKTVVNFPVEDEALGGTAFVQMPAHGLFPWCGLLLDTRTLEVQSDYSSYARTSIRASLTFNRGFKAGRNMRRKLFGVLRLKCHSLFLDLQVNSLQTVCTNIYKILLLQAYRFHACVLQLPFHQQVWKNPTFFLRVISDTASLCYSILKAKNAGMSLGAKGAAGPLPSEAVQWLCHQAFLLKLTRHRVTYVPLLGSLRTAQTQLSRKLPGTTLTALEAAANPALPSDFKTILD

binding: binds
Substance: TERT-NFAST fusion protein (from UniProt O14746 1-1132)

From publication doi:10.1101/2022.08.23.504425
